# Values from PubChem BioAssay AID493246 (Drosophila RNAi Screening Center, 2011).
# Purpose: 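Genes fly cells need to grow and stay alive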 (primary screen)
# Cell system: Drosophila Kc and S2R+ cells
# Knock-down reagent: long dsRNA against Drosophila genes
# Measured: 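Raw, unnormalised count of remaining cells in each well; per-plate z-scores of cell number underlie the calls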
# Reading the numbers: Kc cell number and S2R+ cell number: higher = more cells remaining
# Active means: 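Counted as a hit if cell number falls by a z-score of at least 3 within its plate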
# In all, the deposit lists about 21,000 reagents; below is a random part of those with a known target gene and a result. Of all reagents, 429 (2%) were called active. 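Values are raw and not normalised between plates; calls rest on per-plate z-scores that were not deposited.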 Not given: the amount of reagent, the time to read-out.
gene,amplicon,"Kc cell number, rep 1","Kc cell number, rep 2","S2R+ cell number, rep 1","S2R+ cell number, rep 2",activity call
msl-2 (male-specific lethal 2),DRSC00829,1.31e6,1.37e6,9.24e5,8.99e5,inactive
klar (klarsicht),DRSC08718,1.62e6,1.79e6,1.30e6,1.37e6,inactive
mRpL47 (mitochondrial ribosomal protein L47),DRSC16827,1.42e6,1.38e6,9.51e5,1.11e6,inactive
CG7856,DRSC04896,1.70e6,1.71e6,1.27e6,1.42e6,inactive
CG4477,DRSC10425,1.59e6,1.73e6,1.19e6,1.30e6,inactive
alpha-Est4aPsi (pseudo),DRSC12473,1.40e6,1.45e6,1.12e6,1.32e6,inactive
AstC (Allatostatin C),DRSC02403,1.50e6,1.61e6,1.18e6,1.31e6,inactive
Exd2 (Exonuclease 3'-5' domain-containing 2),DRSC16105,1.41e6,1.43e6,1.21e6,1.26e6,inactive
CG32055,DRSC10666,1.33e6,1.44e6,1.24e6,1.16e6,inactive
CG33552,DRSC01551,1.48e6,1.55e6,9.64e5,1.12e6,inactive
CG6497,DRSC10654,1.46e6,1.71e6,1.36e6,1.61e6,inactive
CG42712 (retired record),DRSC01038,1.47e6,1.58e6,1.07e6,1.18e6,inactive
SecS (Sec synthetase),DRSC12222,1.41e6,1.56e6,1.24e6,1.32e6,inactive
CG11360,DRSC17124,1.26e6,1.22e6,1.02e6,1.11e6,inactive
CG11360,DRSC17134,1.44e6,1.46e6,1.04e6,1.15e6,inactive
CG18180,DRSC10304,1.41e6,1.42e6,1.43e6,1.34e6,inactive
EMC5 (ER membrane protein complex subunit 5),DRSC02469,1.51e6,1.59e6,1.27e6,3.32e5,inactive
CG15369,DRSC18041,1.59e6,1.60e6,9.94e5,1.11e6,inactive
CG16922 (retired record),DRSC19758,1.59e6,1.51e6,8.51e5,9.73e5,inactive
Dlc90F (Dynein light chain 90F),DRSC16649,1.57e6,1.67e6,1.22e6,1.33e6,inactive
stac (staccato),DRSC13693,1.23e6,1.64e6,1.14e6,1.19e6,inactive
stac (staccato),DRSC14392,1.68e6,1.77e6,1.02e6,1.10e6,inactive
CG15522,DRSC15059,1.48e6,1.51e6,1.06e6,1.17e6,inactive
CG32052,DRSC10966,1.27e6,1.42e6,1.28e6,1.26e6,inactive
CG10252,DRSC14221,1.55e6,1.56e6,1.21e6,1.33e6,inactive
Gr10b (Gustatory receptor 10b),DRSC19477,1.57e6,1.51e6,1.08e6,1.21e6,inactive
RpL13A (Ribosomal protein L13A),DRSC12265,1.10e6,1.22e6,7.28e5,7.87e5,active
Vha100-4 (Vacuolar H[+] ATPase 100kD subunit 4),DRSC16282,1.23e6,1.25e6,1.08e6,1.14e6,inactive
narya,DRSC19439,1.67e6,1.74e6,1.17e6,1.31e6,inactive
GC1,DRSC15322,1.94e6,1.99e6,1.31e6,1.27e6,inactive
Wdr33 (WD repeat domain 33),DRSC12162,1.43e6,1.56e6,1.24e6,1.27e6,inactive
CG17636,DRSC20648,1.40e6,1.45e6,1.06e6,1.14e6,inactive
CG6295,DRSC16012,1.64e6,1.67e6,9.52e5,1.06e6,inactive
CG13258,DRSC02244,1.57e6,1.60e6,1.37e6,1.54e6,inactive
dgo (diego),DRSC06134,1.46e6,1.47e6,1.23e6,1.40e6,inactive
nudE,DRSC09000,1.37e6,1.38e6,1.09e6,1.21e6,inactive
nudE,DRSC10962,1.30e6,1.32e6,1.10e6,1.19e6,inactive
Nedd8 (Nedd8 ubiquitin like modifier),DRSC02092,1.51e6,1.59e6,8.26e5,2.41e5,inactive
mge (maggie),DRSC08721,1.68e6,1.66e6,9.21e5,1.15e6,inactive
ImpL2 (Ecdysone-inducible gene L2),DRSC08666,1.34e6,1.38e6,1.29e6,1.25e6,inactive

A portion of the results above:
gene,amplicon,"Kc cell number, rep 1","Kc cell number, rep 2","S2R+ cell number, rep 1","S2R+ cell number, rep 2",activity call
CG10252,DRSC14221,1.55e6,1.56e6,1.21e6,1.33e6,inactive
Gr10b (Gustatory receptor 10b),DRSC19477,1.57e6,1.51e6,1.08e6,1.21e6,inactive
RpL13A (Ribosomal protein L13A),DRSC12265,1.10e6,1.22e6,7.28e5,7.87e5,active
Vha100-4 (Vacuolar H[+] ATPase 100kD subunit 4),DRSC16282,1.23e6,1.25e6,1.08e6,1.14e6,inactive
narya,DRSC19439,1.67e6,1.74e6,1.17e6,1.31e6,inactive
